{"source": "paper PMC9657007", "biological_target": "T1, EcxR (UniProt Q2GG40)", "T1 sequence (looked up)": "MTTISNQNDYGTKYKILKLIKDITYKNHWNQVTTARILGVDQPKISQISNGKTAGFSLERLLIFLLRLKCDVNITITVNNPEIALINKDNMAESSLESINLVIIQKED", "assay": "EMSA", "conditions": "poly dI-dC, abolished by cold competitor; EMSA: 10 mM Tris-HCl pH 7.5, 50 mM KCl, 5 mM MgCl2, 2.5% glycerol, 1 mM DTT, 50 ug/mL poly dI-dC, 20 fmol probe, room temperature 25 min (20 min in Fig 4 legend); recombinant protein; residues 1-108; protein details: pET32a fusion tags (rEcxR 29.6 kDa with tags); label: 5' biotin (forward); probe letters rebuilt from the primers and the genome", "note": "Protein sequences can lack the tags named with them.", "data": [{"sequence": "ACTACTATTAATTTTCTTGAAAATTTAATATATTAGAATTGGTATTAATAATACTATATAAAACATAAATGGAAAAAATTACCACAAACATTTAAACACAACATTTAAAGTGTTGTTATTACCAAATACTTACTAAATTTTGTATTTATGATAATATCATAATAGTTTTACTAAAAAAAATTACAAAAAATGTTATTATCTACTTAAAATTGCAGATTAATTAATAATGCTTTAAGTAATAACAAATAAATTTAGTTGACTATATGAACTAACCTAATATCCTAAATCTTGTTCAGTTATGTAAAATTAGGAGTTAAAATTA (double strand) [hup promoter EMSA probe]", "values": [{"measurement": "binding result", "value": "binds"}]}]}
